In patent US20060051526A1, “Process for producing cellulose acylate film” (Fuji Photo Film Co., Ltd., priority 2002, published 2006):

What was measured:
[1] = Weeping (exudation of retardation control agent on the surface) of the cast cellulose acetate film; details: for Weeping (in words): dope with initial solvent composition 92/8
Method: (§1) The dope thus obtained was cast on a film formation band and dried at 80° C. for 7 minutes. The amount of residual solvent after drying was 35 wt % regardless of the type of retardation control agent. The cellulose acetate film was peeled off from the band, dried at 100° C. for 10 minutes and dried at 140° C. for 20 minutes to give a cellulose acetate film. The effective wind speed of drying air was 5 m/sec through out the drying process until peeling off.
as §1, with “band, and” for “band,”
(§2) The dopes thus obtained were cast on a film formation band and dried at 80° C. for 7 minutes. The amount of residual solvent after drying was 35 wt % regardless of the type of retardation control agent. The cellulose acetate films were peeled off from the band, dried at 100° C. for 10 minutes, and dried at 140° C. for 20 minutes to give cellulose acetate films.

[2] = as above; parameters: key: Bad: Weeping; Good: No weeping
Method: as §1
as §1, with “band, and” for “band,”
as §2

[3] = as above; parameters: key: Bad: Weeping; Fair: Hardly weeping; Good: No weeping; details: Table 10; dope Table 6, dichloromethane/methanol 87/13, 74/26 during drying
Method: as §1
as §1, with “band, and” for “band,”
as §2

[4] = Table 10, dope Table 8, dichloromethane/methanol 92/8, 91/9 during drying
[5] = Table 15, dope Table 12, 87/13, drying blow rate 5 m/min
[6] = Table 15, dope Table 13, 92/8, drying blow rate 5 m/min
[7] = Table 15, dope Table 13, 92/8, drying blow rate 7 m/min
[8] = Table 15, dope Table 14, 74/26, drying blow rate 5 m/min
[9] = film from dope of Table 6, initial CH2Cl2/CH3OH 87/13, 74/26 during drying
[10] = film from dope of Table 8, initial CH2Cl2/CH3OH 92/8, 91/9 during drying

In the case of `COc1ccc(Nc2nc(Nc3cccc(C)c3)nc(Nc3cccc(C)c3)n2)cc1` [Example Compound I-(2)], the “Weeping (in words)” value [1] was “did not weep”, the Weeping ([2]; Table 10, dope Table 6, dichloromethane/methanol 87/13, 74/26 during drying) was “Good” and the Weeping [2, 4] was “Good”. The Weeping [2, 5] was “Good”, the Weeping [2, 6] was “Good” and the Weeping [2, 7] was “Good”. The Weeping [2, 8] was “Bad”, the Weeping [2, 9] was “Good” and the Weeping [2, 10] was “Good”.

For `Cc1cccc(Nc2nc(Nc3cccc(C)c3)nc(Nc3cccc(C)c3)n2)c1` [Example Compound I-(51)], the “Weeping on the film surface (in words)” value ([1]; dope with initial composition ratio 87/13) was “there was weeping on the film surface”, the “Weeping (in words)” value [1] was “did not weep” and the Weeping [2, 4] was “Good”. For the same compound, the Weeping [2, 5] was “Good”, the Weeping [2, 6] was “Good” and the Weeping [2, 7] was “Good”. The Weeping [2, 8] was “Bad”, the Weeping [2, 9] was “Bad” and the Weeping [2, 10] was “Good”. For the same compound, the Weeping [3] was “Fair”.
